Test results published in paper doi:10.1101/2025.11.28.691129.
No constants are given. Whether binding was seen depends on the method and setting. In cells and extracts the contact can be indirect.

By UniProt entry, the sequences of proteins in these tests, tags left out. Residues count along the entry.
UniProt P01589, residues 22-272: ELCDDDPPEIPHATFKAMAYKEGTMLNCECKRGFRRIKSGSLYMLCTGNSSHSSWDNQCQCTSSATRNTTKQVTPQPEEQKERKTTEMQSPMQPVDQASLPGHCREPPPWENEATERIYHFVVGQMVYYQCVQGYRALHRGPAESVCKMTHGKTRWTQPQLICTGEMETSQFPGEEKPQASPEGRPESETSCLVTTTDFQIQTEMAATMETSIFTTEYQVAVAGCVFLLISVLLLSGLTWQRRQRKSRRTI
UniProt P01133, residues 971-1023: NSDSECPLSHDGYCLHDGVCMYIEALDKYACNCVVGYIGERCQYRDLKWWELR

Molecular target: mScarlet3-IL-2Rα (interleukin-2 receptor α chain, N-terminally tagged with mScarlet3) (UniProt P01589)
Test: FRET or BRET

Substance: eGFP-sEGF (soluble EGF, N-terminally tagged with eGFP) (from UniProt P01133) (ligand)
- binding: no binding
